The first data set is described as follows: general procedure: solution-phase peptide synthesis; HATU/DIEA. Particulars: coupling step.
The substance “(8S,11S,14S)-18- hydroxy-11-methyl- 14-[methyl-[(2S)-2- [[2-(4-isopropoxy- phenyl)-4,6-dimethyl- pyrimidine-5- carbonyl]amino]-3- (sulfamoylamino)- propanoyl]amino]- 10,13-dioxo-3,17- bis[(2R)-3-amino-2- hydroxy-propoxy]- 9,12-diazatricyclo- [13.3.1.12,6]icosa- 1(18),2(20),3,5,15(19), 16-hexaene-8- carboxylic acid” showed a step yield of 97.3%.

The substance “(8S,11S,14S)-18- hydroxy-11-methyl- 14-[methyl-[(2S)-4- amino-2-[[2-(4-tert- butylphenyl)-4,6- dimethyl-pyrimidine- 5-carbonyl]amino]- butanoyl]amino]- 10,13-dioxo-3,17- bis[(2R)-3-amino-2- hydroxy-propoxyl]- 9,12-diazatricyclo- [13.3.1.12,6]icosa- 1(18),2(20),3,5,15(19), 16-hexaene-8- carboxylic acid” displayed a step yield of 83.8% yield.

Staying with this data set, now noted: late stage modification step.
For “(8S,11S,14S)-18- hydroxy-11-methyl- 14-[methyl-[(2S)-4- amino-2-[[2-(4- isopropoxyphenyl)- 4-methyl-pyrimidine- 5-carbonyl]amino]- butanoyl]amino]- 10,13-dioxo-3,17- bis[(2R)-3-amino-2- hydroxy-propoxy]- 9,12-diazatricyclo- [13.3.1.12,6]icosa- 1(18),2(20),3,5,15(19), 16-hexaene-8- carboxylic acid”, the step yield was found to be 100% yield.

On to “(8S,11S,14S)-18- hydroxy-11-methyl- 14-[methyl-[(2S)-4- amino-2-[[4-amino- 2-[4-(3,3-dimethyl- butoxy)phenyl]-6- methyl-pyrimidine- 5-carbonyl]amino]- butanoyl]amino]- 10,13-dioxo-3,17- bis[(2R)-3-amino-2- hydroxy-propoxy]- 9,12-diazatricyclo- [13.3.1.12,6]icosa- 1(18),2(20),3,5,15(19), 16-hexaene-8- carboxylic acid”, for which the step yield stood at 99.1%.

The substance “(8S,11S,14S)-18- hydroxy-11-methyl- 14-[methyl-[(2S)-4- amino-2-[[1-(4-tert- butylphenyl)-6-oxo- pyridazine-4- carbonyl]amino]- butanoyl]amino]- 10,13-dioxo-3,17- bis[(2R)-3-amino-2- hydroxy-propoxy]- 9,12-diazatricyclo- [13.3.1.12,6]icosa- 1(18),2(20),3,5,15(19), 16-hexaene-8- carboxylic acid” had a step yield of 68.7%.

“(8S,11S,14S)-18- hydroxy-11-methyl-14- [methyl-[(2S)-2-[[1-(4- tert-butylphenyl)-6- oxo-pyridazine-4- carbonyl]amino]-3- (sulfamoylamino)- propanoyl]amino]- 10,13-dioxo-3,17- bis[(2R)-3-amino-2- hydroxy-propoxy]- 9,12-diazatricyclo- [13.3.1.12,6]icosa- 1(18),2(20),3,5,15(19), 16-hexaene-8- carboxylic acid” yielded a step yield of 32.9%.

Regarding “(8S,11S,14S)-18- hydroxy-11-methyl- 14-[methyl-[(2S)-2- [[2-[4-(3,3-dimethyl- butoxy)phenyl]-4- methyl-pyrimidine- 5-carbonyl]amino]-3- (sulfamoylamino)- propanoyl]amino]- 10,13-dioxo-3,17- bis[(2R)-3-amino-2- hydroxy-propoxy]- 9,12-diazatricyclo- [13.3.1.12,6]icosa- 1(18),2(20),3,5,15(19), 16-hexaene-8- carboxylic acid”, the step yield is on record as 48.8%.

The substance “(8S,11S,14S)-18- hydroxy-11-methyl- 14-[methyl-[(2S)-2- [[2-(4-isopropoxy- phenyl)-4-methyl- pyrimidine-5- carbonyl]amino]-3- (sulfamoylamino)- propanoyl]amino]- 10,13-dioxo-3,17- bis[(2R)-3-amino-2- hydroxy-propoxy]- 9,12-diazatricyclo- [13.3.1.12,6]icosa- 1(18),2(20),3,5,15(19), 16-hexaene-8- carboxylic acid” yielded a step yield of 63.0%.

As for “(8S,11S,14S)-18- hydroxy-11-methyl- 14-[methyl-[(2S)-2- [[3-amino-5-(4-tert- butylphenyl)pyrazine- 2-carbonyl]amino]-3- (sulfamoylamino)- propanoyl]amino]- 10,13-dioxo-3,17- bis[(2R)-3-amino-2- hydroxy-propoxy]- 9,12-diazatricyclo- [13.3.1.12,6]icosa- 1(18),2(20),3,5,15(19), 16-hexaene-8- carboxylic acid”, the step yield was 100% yield.
